Assay results: the supplement of paper PMC8728848
The list shows a part of the results.

Key:
Test in all cases: glycan array binding signal (z-score within array); higher = stronger binding
Settings in all cases: glycan notation: IUPAC condensed, linker removed
[1] = molecular target: Neu5Ac(a2-3)Gal6S(b1-4)[Fuc(a1-3)]GlcNAc
Procedure, shortened: (§1)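 Columns mapping to the same glycan were averaged after glycan names were converted to IUPAC-condensed notation. The data come from 3228 arrays in the Consortium for Functional Glycomics database, limited to those with an available protein sequence. Binding is reported as a within-array Z-score averaged across arrays of one protein sequence and across linkers.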

Neu5Ac(a2-3)GalNAc = molecular target: Neu5Ac(a2-3)GalNAc
Procedure, shortened: as §1

[2] = molecular target: Neu5Ac(a2-3)GalNAc(b1-4)GlcNAc
Procedure, shortened: as §1

[3] = molecular target: Neu5Ac(a2-3)[GalNAc(b1-4)]Gal(b1-4)Glc
Procedure, shortened: as §1

[4] = molecular target: Neu5Ac(a2-3)[GalNAc(b1-4)]Gal(b1-4)GlcNAc
Procedure, shortened: as §1

[5] = molecular target: Neu5Ac(a2-3)[GalNAc(b1-4)]Gal(b1-4)GlcNAc(b1-3)GalNAc
Procedure, shortened: as §1

[6] = molecular target: Neu5Ac(a2-3)[Neu5Ac(a2-6)]GalNAc
Procedure, shortened: as §1

Neu5Ac(a2-6)Gal = molecular target: Neu5Ac(a2-6)Gal
Procedure, shortened: as §1

[7] = molecular target: Neu5Ac(a2-6)Gal(b1-3)GlcNAc(b1-3)[Gal(b1-4)GlcNAc(b1-6)]Gal(b1-4)Glc
Procedure, shortened: as §1

Neu5Ac(a2-6)Gal(b1-4)Glc = molecular target: Neu5Ac(a2-6)Gal(b1-4)Glc
Procedure, shortened: as §1

[8] = molecular target: Neu5Ac(a2-6)Gal(b1-4)GlcNAc
Procedure, shortened: as §1

[9] = molecular target: Neu5Ac(a2-6)Gal(b1-4)GlcNAc(b1-2)Man
Procedure, shortened: as §1

[10] = molecular target: Neu5Ac(a2-6)Gal(b1-4)GlcNAc(b1-2)Man(a1-3)Man(b1-4)GlcNAc(b1-4)GlcNAc
Procedure, shortened: as §1

[11] = molecular target: Neu5Ac(a2-6)Gal(b1-4)GlcNAc(b1-2)Man(a1-3)[Gal(b1-4)GlcNAc(b1-2)Man(a1-6)]Man(b1-4)GlcNAc(b1-4)GlcNAc
Procedure, shortened: as §1

[12] = molecular target: Neu5Ac(a2-6)Gal(b1-4)GlcNAc(b1-2)Man(a1-3)[GlcNAc(b1-2)Man(a1-6)]Man(b1-4)GlcNAc(b1-4)GlcNAc
Procedure, shortened: as §1

[13] = molecular target: Neu5Ac(a2-6)Gal(b1-4)GlcNAc(b1-2)Man(a1-3)[GlcNAc(b1-4)][Neu5Ac(a2-6)Gal(b1-4)GlcNAc(b1-2)Man(a1-6)]Man(b1-4)GlcNAc(b1-4)GlcNAc
Procedure, shortened: as §1

[14] = molecular target: Neu5Ac(a2-6)Gal(b1-4)GlcNAc(b1-2)Man(a1-3)[Man(a1-6)]Man(b1-4)GlcNAc(b1-4)GlcNAc
Procedure, shortened: as §1

[15] = molecular target: Neu5Ac(a2-6)Gal(b1-4)GlcNAc(b1-2)Man(a1-3)[Neu5Ac(a2-3)Gal(b1-4)GlcNAc(b1-2)Man(a1-6)]Man(b1-4)GlcNAc(b1-4)GlcNAc
Procedure, shortened: as §1

[16] = molecular target: Neu5Ac(a2-6)Gal(b1-4)GlcNAc(b1-2)Man(a1-3)[Neu5Ac(a2-6)Gal(b1-4)GlcNAc(b1-2)Man(a1-6)]Man(b1-4)GlcNAc(b1-4)GlcNAc
Procedure, shortened: as §1

[17] = molecular target: Neu5Ac(a2-6)Gal(b1-4)GlcNAc(b1-2)Man(a1-3)[Neu5Ac(a2-6)Gal(b1-4)GlcNAc(b1-2)Man(a1-6)]Man(b1-4)GlcNAc(b1-4)[Fuc(a1-6)]GlcNAc
Procedure, shortened: as §1

[18] = molecular target: Neu5Ac(a2-6)Gal(b1-4)GlcNAc(b1-2)Man(a1-6)Man(b1-4)GlcNAc(b1-4)GlcNAc
Procedure, shortened: as §1

[19] = molecular target: Neu5Ac(a2-6)Gal(b1-4)GlcNAc(b1-2)Man(a1-6)[Gal(b1-4)GlcNAc(b1-2)Man(a1-3)]Man(b1-4)GlcNAc(b1-4)GlcNAc
Procedure, shortened: as §1

[20] = molecular target: Neu5Ac(a2-6)Gal(b1-4)GlcNAc(b1-2)Man(a1-6)[GlcNAc(b1-2)Man(a1-3)]Man(b1-4)GlcNAc(b1-4)GlcNAc
Procedure, shortened: as §1

[21] = molecular target: Neu5Ac(a2-6)Gal(b1-4)GlcNAc(b1-2)Man(a1-6)[Man(a1-3)]Man(b1-4)GlcNAc(b1-4)GlcNAc
Procedure, shortened: as §1

[22] = molecular target: Neu5Ac(a2-6)Gal(b1-4)GlcNAc(b1-2)[Neu5Ac(a2-6)Gal(b1-4)GlcNAc(b1-4)]Man(a1-3)[GlcNAc(b1-4)][Neu5Ac(a2-6)Gal(b1-4)GlcNAc(b1-2)[Neu5Ac(a2-6)Gal(b1-4)GlcNAc(b1-6)]Man(a1-6)]Man(b1-4)GlcNAc(b1-4)GlcNAc
Procedure, shortened: as §1

[23] = molecular target: Neu5Ac(a2-6)Gal(b1-4)GlcNAc(b1-2)[Neu5Ac(a2-6)Gal(b1-4)GlcNAc(b1-4)]Man(a1-3)[GlcNAc(b1-4)][Neu5Ac(a2-6)Gal(b1-4)GlcNAc(b1-4)Man(a1-6)]Man(b1-4)GlcNAc(b1-4)GlcNAc
Procedure, shortened: as §1

[24] = molecular target: Neu5Ac(a2-6)Gal(b1-4)GlcNAc(b1-2)[Neu5Ac(a2-6)Gal(b1-4)GlcNAc(b1-6)]Man(a1-6)[Neu5Ac(a2-6)Gal(b1-4)GlcNAc(b1-2)Man(a1-3)][GlcNAc(b1-4)]Man(b1-4)GlcNAc(b1-4)GlcNAc
Procedure, shortened: as §1

[25] = molecular target: Neu5Ac(a2-6)Gal(b1-4)GlcNAc(b1-3)Gal(b1-3)GlcNAc
Procedure, shortened: as §1

[26] = molecular target: Neu5Ac(a2-6)Gal(b1-4)GlcNAc(b1-3)Gal(b1-4)GlcNAc
Procedure, shortened: as §1

[27] = molecular target: Neu5Ac(a2-6)Gal(b1-4)GlcNAc(b1-3)Gal(b1-4)GlcNAc(b1-2)Man(a1-3)[Neu5Ac(a2-6)Gal(b1-4)GlcNAc(b1-3)Gal(b1-4)GlcNAc(b1-2)Man(a1-6)]GalNAc
Procedure, shortened: as §1

[28] = molecular target: Neu5Ac(a2-6)Gal(b1-4)GlcNAc(b1-3)Gal(b1-4)GlcNAc(b1-3)Gal(b1-4)GlcNAc
Procedure, shortened: as §1

[29] = molecular target: Neu5Ac(a2-6)Gal(b1-4)GlcNAc(b1-3)Gal(b1-4)GlcNAc(b1-3)Gal(b1-4)GlcNAc(b1-2)Man(a1-3)[Neu5Ac(a2-6)Gal(b1-4)GlcNAc(b1-3)Gal(b1-4)GlcNAc(b1-3)Gal(b1-4)GlcNAc(b1-2)Man(a1-6)]GalNAc
Procedure, shortened: as §1

[30] = molecular target: Neu5Ac(a2-6)Gal(b1-4)GlcNAc(b1-3)Gal(b1-4)GlcNAc(b1-3)GalNAc
Procedure, shortened: as §1

[31] = molecular target: Neu5Ac(a2-6)Gal(b1-4)GlcNAc(b1-3)Gal(b1-4)GlcNAc(b1-3)[Neu5Ac(a2-6)Gal(b1-4)GlcNAc(b1-3)Gal(b1-4)GlcNAc(b1-6)]GalNAc
Procedure, shortened: as §1

[32] = molecular target: Neu5Ac(a2-6)Gal(b1-4)GlcNAc(b1-3)Gal(b1-4)GlcNAc(b1-6)[Gal(b1-3)]GalNAc
Procedure, shortened: as §1

[33] = molecular target: Neu5Ac(a2-6)Gal(b1-4)GlcNAc(b1-3)Gal(b1-4)[Fuc(a1-3)]GlcNAc(b1-3)Gal(b1-4)[Fuc(a1-3)]GlcNAc
Procedure, shortened: as §1

[34] = molecular target: Neu5Ac(a2-6)Gal(b1-4)GlcNAc(b1-3)GalNAc
Procedure, shortened: as §1

[35] = molecular target: Neu5Ac(a2-6)Gal(b1-4)GlcNAc(b1-3)[Neu5Ac(a2-6)Gal(b1-4)GlcNAc(b1-6)]GalNAc
Procedure, shortened: as §1

[36] = molecular target: Neu5Ac(a2-6)Gal(b1-4)GlcNAc(b1-6)GalNAc
Procedure, shortened: as §1

[37] = molecular target: Neu5Ac(a2-6)Gal(b1-4)GlcNAc(b1-6)[Gal(b1-3)GlcNAc(b1-3)]Gal(b1-4)Glc
Procedure, shortened: as §1

[38] = molecular target: Neu5Ac(a2-6)Gal(b1-4)GlcNAc(b1-6)[Gal(b1-3)]GalNAc
Procedure, shortened: as §1

[39] = molecular target: Neu5Ac(a2-6)Gal(b1-4)GlcNAc6S
Procedure, shortened: as §1

Neu5Ac(a2-6)GalNAc = molecular target: Neu5Ac(a2-6)GalNAc
Procedure, shortened: as §1

[40] = molecular target: Neu5Ac(a2-6)GalNAc(b1-4)GlcNAc
Procedure, shortened: as §1

[41] = molecular target: Neu5Ac(a2-6)GalNAc(b1-4)GlcNAc6S
Procedure, shortened: as §1

B1: CBP21 (Serratia marcescens), O83009 (protein)
chain: MNKTSRTLLSLGLLSAAMFGVSQQANAHGYVESPASRAYQCKLQLNTQCGSVQYEPQSVEGLKGFPQAGPADGHIASADKSTFFELDQQTPTRWNKLNLKTGPNSFTWKLTARHSTTSWRYFITKPNWDASQPLTRASFDLTPFCQFNDGGAIPAAQVTHQCNIPADRSGSHVILAVWDIADTANAFYQAIDVNLSK
- glycan array binding signal (z-score) [1]: -0.454
- glycan array binding signal (z-score) (Neu5Ac(a2-3)GalNAc): -0.582
- glycan array binding signal (z-score) [2]: 0.542
- glycan array binding signal (z-score) [3]: -1.49
- glycan array binding signal (z-score) [4]: 0.682
- glycan array binding signal (z-score) [5]: -0.031
- glycan array binding signal (z-score) [6]: 0.644
- glycan array binding signal (z-score) (Neu5Ac(a2-6)Gal): 0.109
- glycan array binding signal (z-score) [7]: -0.178
- glycan array binding signal (z-score) (Neu5Ac(a2-6)Gal(b1-4)Glc): -0.329
- glycan array binding signal (z-score) [8]: -0.309
- glycan array binding signal (z-score) [9]: -0.09
- glycan array binding signal (z-score) [10]: -0.832
- glycan array binding signal (z-score) [11]: -0.251
- glycan array binding signal (z-score) [12]: -0.307
- glycan array binding signal (z-score) [13]: -1.14
- glycan array binding signal (z-score) [14]: 0.511
- glycan array binding signal (z-score) [15]: 0.611
- glycan array binding signal (z-score) [16]: 0.589
- glycan array binding signal (z-score) [17]: 0.745
- glycan array binding signal (z-score) [18]: -0.844
- glycan array binding signal (z-score) [19]: -1.16
- glycan array binding signal (z-score) [20]: 0.524
- glycan array binding signal (z-score) [21]: -0.695
- glycan array binding signal (z-score) [22]: 0.048
- glycan array binding signal (z-score) [23]: 0.512
- glycan array binding signal (z-score) [24]: 0.063
- glycan array binding signal (z-score) [25]: 0.529
- glycan array binding signal (z-score) [26]: -1.01
- glycan array binding signal (z-score) [27]: 2.96
- glycan array binding signal (z-score) [28]: -0.719
- glycan array binding signal (z-score) [29]: 2.48
- glycan array binding signal (z-score) [30]: -0.005
- glycan array binding signal (z-score) [31]: -0.966
- glycan array binding signal (z-score) [32]: -0.292
- glycan array binding signal (z-score) [33]: 0.632
- glycan array binding signal (z-score) [34]: 0.08
- glycan array binding signal (z-score) [35]: 0.171
- glycan array binding signal (z-score) [36]: 1.77
- glycan array binding signal (z-score) [37]: -0.085
- glycan array binding signal (z-score) [38]: -0.063
- glycan array binding signal (z-score) [39]: 0.542
- glycan array binding signal (z-score) (Neu5Ac(a2-6)GalNAc): -0.252
- glycan array binding signal (z-score) [40]: -0.222
- glycan array binding signal (z-score) [41]: 0.087
